Laboratory results reported in patent publication US9708312B2, “Dihydropyrimidinoisoquinolinones and pharmaceutical compositions thereof for the treatment of inflammatory disorders (GPR84 antagonists)” (GALAPAGOS NV, priority 2012, dated 2017).
At least one structure is not confirmed: it was looked up by name or label, or the drawing left a doubt.

Chains of the proteins cited; added tags and fusions are not shown. Lines headed by an entry give the natural chain unless they say otherwise; changes in a name come on top.
UniProt Q9NQS5: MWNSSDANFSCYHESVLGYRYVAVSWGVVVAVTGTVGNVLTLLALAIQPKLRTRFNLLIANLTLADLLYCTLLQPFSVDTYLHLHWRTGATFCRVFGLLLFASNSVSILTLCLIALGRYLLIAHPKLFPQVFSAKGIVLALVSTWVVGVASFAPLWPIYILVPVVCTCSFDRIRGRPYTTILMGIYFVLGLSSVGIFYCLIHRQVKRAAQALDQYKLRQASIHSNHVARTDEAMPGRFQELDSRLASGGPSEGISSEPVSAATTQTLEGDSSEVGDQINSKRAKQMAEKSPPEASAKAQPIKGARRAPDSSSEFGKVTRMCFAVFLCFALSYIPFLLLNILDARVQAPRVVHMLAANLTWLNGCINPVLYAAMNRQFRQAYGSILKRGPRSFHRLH

Columns and labels:
[1] = target: T1, GPR84 (Homo sapiens, UniProt Q9NQS5); settings: literature reports; cited from earlier work
T1 construct: expressed in transfected cells

[2] = test system: human neutrophils; assay: Human neutrophil migration assay (embelin-induced chemotaxis); format: cell-based
Experimental: 2.1. Human Neutrophil Migration Assay
The effect of agonists or antagonists for GPR84 can therefore be assayed in a neutrophil migration test. In the neutrophil migration assay, neutrophils, freshly isolated from buffy coats from human volunteers, are treated with a compound for 30 min Subsequently, the neutrophils are transferred to the upper wells of a Corning HTS transwell 96 permeable support system, of which the lower wells are filled with a embelin solution at EC80 (concentration which gives 80% of the activity of GPR84). After 1 h of incubation, migration of the neutrophils towards embelin in the lower compartment can be quantified by measuring the ATP-content of the lower wells using the ATPlite luminescence ATP detection assay system (Perkin Elmer, Cat. No.: 436110).
2.1.1 Isolation of Neutrophils from Human Buffy Coat
A human buffy coat is diluted with an equal volume of ice cold DPBS. 20 mL of the diluted buffy coat is gently mixed with 4 mL of ACD buffer (140 mM citric acid, 200 mM sodium citrate and 220 mM dextrose). […]
A cell suspension of 8.9×10^6 cells per milliliter is prepared. […] 170 μL of cell lysate is then transferred to a white 96-well plate and luminescence is measured. The detected luminescent signal is considered as linearely related to the number of cells having migrated from the upper well to the receiver well.

In the case of CCCCCCCCCCCC1=C(O)C(=O)C=C(O)C1=O [embelin, reference compound], the GPR84 agonist activity [1] is given as “some GPR84 agonist activity” and the “neutrophil chemotaxis induced by GPR84 agonists” value [2] is given as “induce neutrophil chemotaxis”.
